The record followed here is paper PMC8495450.

Amino acid sequences for entries named in this document (tags omitted). A change or cut given only in a name is not applied to a line headed by its entry. Chains listed by the source or under a name are the forms on record and can include a tag or linker. Residues count along the entry.
UniProt O75489: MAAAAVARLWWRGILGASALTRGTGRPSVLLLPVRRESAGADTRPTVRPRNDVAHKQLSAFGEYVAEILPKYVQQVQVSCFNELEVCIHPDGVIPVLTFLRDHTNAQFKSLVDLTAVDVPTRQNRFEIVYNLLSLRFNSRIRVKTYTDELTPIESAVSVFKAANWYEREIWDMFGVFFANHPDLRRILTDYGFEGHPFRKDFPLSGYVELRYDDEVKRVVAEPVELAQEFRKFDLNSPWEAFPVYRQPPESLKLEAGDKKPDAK
truncated Ndufs3 (tNdufs3), Myc/Flag‐tagged: residues 37-132 of O75489

These are yes or no findings as the source states them, for the method shown. For some assays here: Binding seen in cells or lysates may run through a third protein. Some binding calls cover weakened binding; strength is not graded here. Tags and fused reporters may be left off the sequences shown.

Assay [1] has as its target T1, Flag‐tagged Pdia4 (UniProt P13667).
T1 sequence: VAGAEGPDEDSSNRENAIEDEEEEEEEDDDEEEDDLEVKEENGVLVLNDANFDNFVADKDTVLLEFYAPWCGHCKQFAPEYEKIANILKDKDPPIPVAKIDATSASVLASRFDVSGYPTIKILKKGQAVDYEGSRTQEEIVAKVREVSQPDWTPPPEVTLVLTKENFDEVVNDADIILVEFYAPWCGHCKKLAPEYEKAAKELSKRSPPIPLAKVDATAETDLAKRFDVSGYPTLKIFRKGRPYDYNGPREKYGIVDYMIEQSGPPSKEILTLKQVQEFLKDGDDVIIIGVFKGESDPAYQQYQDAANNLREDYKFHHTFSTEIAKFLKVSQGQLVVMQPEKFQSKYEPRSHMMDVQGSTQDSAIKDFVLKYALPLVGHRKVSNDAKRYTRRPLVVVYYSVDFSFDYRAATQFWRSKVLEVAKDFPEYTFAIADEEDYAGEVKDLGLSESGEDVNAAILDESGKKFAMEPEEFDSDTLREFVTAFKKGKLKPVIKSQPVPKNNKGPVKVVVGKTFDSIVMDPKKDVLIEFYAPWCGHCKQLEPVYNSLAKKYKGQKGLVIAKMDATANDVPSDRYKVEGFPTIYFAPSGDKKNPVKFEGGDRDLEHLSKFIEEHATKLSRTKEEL
In words: co-IP; 293T cells co-transfected with Flag-Pdia4 and Myc/Flag-tagged p22^phox or Ndufs3, treated with GHTT (28 μM, 30 min by the legend; 10 μg/ml, 2 h by the methods); anti-Pdia4 antibody plus protein G beads; anti-Flag immunoblot. (A western blot detects proteins with antibodies after separation by electrophoresis.)

Assay [2] has as its target T2, Gst‐Pdia4 (recombinant) (UniProt P13667).
T2 sequence: T1 sequence
As to the kind of experiment: pull-down; recombinant Gst-Pdia4 incubated with His-tagged Nox1, Nox2, Nox3 or Nox4 for 1 h, then Gst beads; immunoblot; both purified.

The target in assay [3] is T3, 6×His‐Pdia4 (recombinant) (UniProt P13667).
T3 sequence: T1 sequence
As to the kind of experiment: condition: 32 ng Gst-TecSH3, equimolar to 50 ng His-Pdia4; pull-down; His-tagged Pdia4 (50 ng) incubated in vitro with an equimolar amount of Gst-TecSH3 (32 ng), Gst-Ndufs3 (41 ng) or Gst-p22^phox (33 ng); pull-down with nickel beads; anti-Gst and anti-His immunoblot; both purified.

The target of assay [4] is Myc/Flag‐tagged Ndufs3 (full‐length) (UniProt O75489). As to the kind of experiment: co-IP; 293T cells co-transfected with Flag-Pdia4 (or mutants) and Myc/Flag-tagged Ndufs3 or p22^phox (or mutants); lysates precipitated with anti-Myc (in Fig 6C also anti-Pdia4) antibody plus protein G beads; anti-Flag immunoblot.
Assay [5] has as its target T4, Myc/Flag‐tagged p22^phox (full‐length) (UniProt P13498).
T4 sequence: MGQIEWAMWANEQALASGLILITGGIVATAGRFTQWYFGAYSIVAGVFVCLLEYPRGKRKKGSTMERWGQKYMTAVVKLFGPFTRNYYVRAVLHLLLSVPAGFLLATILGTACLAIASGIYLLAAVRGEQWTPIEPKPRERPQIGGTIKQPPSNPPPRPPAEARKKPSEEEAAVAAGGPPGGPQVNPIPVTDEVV
Described as above.

Assay [6] deals with truncated Ndufs3 (tNdufs3), Myc/Flag‐tagged (UniProt O75489). The assay is described as above.
Assay [7] deals with T5, truncated p22^phox (tp22^phox), Myc/Flag‐tagged (UniProt P13498).
T5 sequence: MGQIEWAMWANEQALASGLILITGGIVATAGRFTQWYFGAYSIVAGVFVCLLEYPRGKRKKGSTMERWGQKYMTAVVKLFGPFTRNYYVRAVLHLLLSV
Described as above.

B1: Myc/Flag‐tagged p22^phox (full‐length) (protein, UniProt P13498 1-195)
chain: T4 sequence
For the molecule B1, the binding entry in assay [1] is reported as “no binding (condition: cells treated with GHTT (28 μM))”.

B2: His‐tagged Nox3 (recombinant) (protein, UniProt Q9HBY0 1-568)
chain: MMGCWILNEGLSTILVLSWLGINFYLFIDTFYWYEEEESFHYTRVILGSTLAWARASALCLNFNCMLILIPVSRNLISFIRGTSICCRGPWRRQLDKNLRFHKLVAYGIAVNATIHIVAHFFNLERYHWSQSEEAQGLLAALSKLGNTPNESYLNPVRTFPTNTTTELLRTIAGVTGLVISLALVLIMTSSTEFIRQASYELFWYTHHVFIVFFLSLAIHGTGRIVRGQTQDSLSLHNITFCRDRYAEWQTVAQCPVPQFSGKEPSAWKWILGPVVLYACERIIRFWRFQQEVVITKVVSHPSGVLELHMKKRGFKMAPGQYILVQCPAISSLEWHPFTLTSAPQEDFFSVHIRAAGDWTAALLEAFGAEGQALQEPWSLPRLAVDGPFGTALTDVFHYPVCVCVAAGIGVTPFAALLKSIWYKCSEAQTPLKLSKVYFYWICRDARAFEWFADLLLSLETRMSEQGKTHFLSYHIFLTGWDENQALHIALHWDENTDVITGLKQKTFYGRPNWNNEFKQIAYNHPSSSIGVFFCGPKALSRTLQKMCHLYSSADPRGVHFYYNKESF
As to B2, the binding result in assay [2] was “no binding”.

B3: His‐tagged Nox2 (recombinant) (protein, UniProt P04839 1-570)
chain: MGNWAVNEGLSIFVILVWLGLNVFLFVWYYRVYDIPPKFFYTRKLLGSALALARAPAACLNFNCMLILLPVCRNLLSFLRGSSACCSTRVRRQLDRNLTFHKMVAWMIALHSAIHTIAHLFNVEWCVNARVNNSDPYSVALSELGDRQNESYLNFARKRIKNPEGGLYLAVTLLAGITGVVITLCLILIITSSTKTIRRSYFEVFWYTHHLFVIFFIGLAIHGAERIVRGQTAESLAVHNITVCEQKISEWGKIKECPIPQFAGNPPMTWKWIVGPMFLYLCERLVRFWRSQQKVVITKVVTHPFKTIELQMKKKGFKMEVGQYIFVKCPKVSKLEWHPFTLTSAPEEDFFSIHIRIVGDWTEGLFNACGCDKQEFQDAWKLPKIAVDGPFGTASEDVFSYEVVMLVGAGIGVTPFASILKSVWYKYCNNATNLKLKKIYFYWLCRDTHAFEWFADLLQLLESQMQERNNAGFLSYNIYLTGWDESQANHFAVHHDEEKDVITGLKQKTLYGRPNWDNEFKTIASQHPNTRIGVFLCGPEALAETLSKQSISNSESGPRGVHFIFNKENF
As for B3, the binding result in assay [2] is “no binding”.

B4: Gst‐TecSH3 (domain or fragment, UniProt P24604 178-238)
chain: NTEEIVVAMYDFQATEAHDLRLERGQEYIILEKNDLHWWRARDKYGSEGYIPSNYVTGKKS
Regarding B4, the binding entry in assay [3] is “no binding”.

B5: Flag‐tagged Pdia4^322–515 (non‐catalytic domains b and b') (domain or fragment, UniProt P13667 322-515)
chain: QYQDAANNLREDYKFHHTFSTEIAKFLKVSQGQLVVMQPEKFQSKYEPRSHMMDVQGSTQDSAIKDFVLKYALPLVGHRKVSNDAKRYTRRPLVVVYYSVDFSFDYRAATQFWRSKVLEVAKDFPEYTFAIADEEDYAGEVKDLGLSESGEDVNAAILDESGKKFAMEPEEFDSDTLREFVTAFKKGKLKPVIK
Take B5: the binding entry in assay [4] and in assay [5] was “no binding” in each case.

B6: His‐tagged Nox4 (recombinant) (protein, UniProt Q9NPH5 1-578)
chain: MAVSWRSWLANEGVKHLCLFIWLSMNVLLFWKTFLLYNQGPEYHYLHQMLGLGLCLSRASASVLNLNCSLILLPMCRTLLAYLRGSQKVPSRRTRRLLDKSRTFHITCGVTICIFSGVHVAAHLVNALNFSVNYSEDFVELNAARYRDEDPRKLLFTTVPGLTGVCMVVVLFLMITASTYAIRVSNYDIFWYTHNLFFVFYMLLTLHVSGGLLKYQTNLDTHPPGCISLNRTSSQNISLPEYFSEHFHEPFPEGFSKPAEFTQHKFVKICMEEPRFQANFPQTWLWISGPLCLYCAERLYRYIRSNKPVTIISVMSHPSDVMEIRMVKENFKARPGQYITLHCPSVSALENHPFTLTMCPTETKATFGVHLKIVGDWTERFRDLLLPPSSQDSEILPFIQSRNYPKLYIDGPFGSPFEESLNYEVSLCVAGGIGVTPFASILNTLLDDWKPYKLRRLYFIWVCRDIQSFRWFADLLCMLHNKFWQENRPDYVNIQLYLSQTDGIQKIIGEKYHALNSRLFIGRPRWKLLFDEIAKYNRGKTVGVFCCGPNSLSKTLHKLSNQNNSYGTRFEYNKESFS
On to B6, for which the binding result in assay [2] was “no binding”.

B7: Flag‐tagged Pdia4 (protein, UniProt P13667 21-645)
chain: T1 sequence
Turning to B7, the binding result in assay [4], in assay [6], in assay [7] and in assay [5] was “binds” in each case.
